Values joined by “and” are separate entries in the source; they are usually repeats but may differ in a detail not shown here. Identical values can stand only once. The source gives many values for each of these; only a part stands here. Residues, ends and D or L forms follow the SMILES beside them.
Key:
[1] = system: K. pneumoniae ATCC 700603; assay: Membrane depolarization assay, DiSC3(5); type: cell-based, Klebsiella pneumoniae
Procedure: MRSA USA 300 and K. pneumoniae ATCC 700603 were inoculated into 5 mL of LB and shaken at 37°C and 225 rpm to OD600 ≈ 0.5 (i.e., mid-logarithmic phase). Bacteria were collected by centrifugation at 8000 rpm for 5 min, and washed twice with assay buffer (5 mM HEPES, 20 mM glucose, 10 mM KCl, pH 7.2). Bacteria were resuspended in the assay buffer to OD595 ≈ 0.1. DiSC3(5) was added to the cells at final concentration of 0.3 µM, wrapped with aluminum foil, and incubated at 37°C, until a stable fluorescence was observed. Two microliter of compound or DMSO were transferred into 96-well black walled polystyrene plates, to which was added 98 µL per well of the dye-saturated bacterial cells to initiate the reaction. The final concentration of HT2 and RI-HT2 were 1 ×, 2 ×, 4 × and 8 × MIC. Plates were immediately read on an Envison at λex = 622 nm/ λem = 670 nm with a kinetic program (reading every 1 min for 10 min) until the maximal intensity achieved was observed.

MRSA USA 300 = assay: Membrane permeability, SYTOX Green; type: cell-based, Staphylococcus aureus
Procedure: (§1) Fluorescent probe SYTOX^TM Green (Invitrogen/ Life Technologies, S7020) was used to analyze the effect of HT2 and RI-HT2 on membrane permeability of MRSA USA 300 and K. pneumoniae ATCC 700603 as described elsewhere. SYTOX^TM Green is a DNA binding dye that is fluorescent when bound to nucleic acids and only enters cells with compromised plasma membranes. MRSA USA 300 and K. pneumoniae ATCC 700603 were cultured in LB broth to mid log phase at 37 °C and washed with PBS and resuspended (OD595 ≈ 0.1) in the same buffer. SYTOX^TM Green was added into the cell suspension with a final concentration of 5 μM and being kept in dark for 20 min. 98 µL pre-treated cell suspension was transferred into wells of 96-well glass black plates. Then, 2 µL of compound or DMSO were added to initiate the reaction. The final concentrations of HT2 and RI-HT2 were 1 ×, 2 ×, 4 × and 8 × MIC. Fluorescence strength was measured with excitation/emission wavelength of 485/528 nm every 5 min for 60 min.

[2] = system: K. pneumoniae ATCC 700603; assay: Membrane permeability, SYTOX Green; type: cell-based, Klebsiella pneumoniae
Procedure: as §1

SMILES: CC[C@H](C)[C@H](NC(=O)[C@H](CCCNC(=N)N)NC(=O)[C@H](CCCNC(=N)N)NC(=O)[C@H](CC(C)C)NC(=O)[C@H](Cc1ccccc1)NC(=O)[C@@H](N)CCCNC(=N)N)C(=O)N[C@@H](Cc1ccccc1)C(=O)N[C@@H](Cc1ccccc1)C(=O)N[C@@H](Cc1ccccc1)C(=O)N[C@@H](Cc1ccccc1)C(N)=O [HT2] (H-RFLRRIFFFF-NH2)
- Fluorescence intensity ([1]; 4 × MIC, time 10 min): 587457 and 523583 and 516616
- Fluorescence intensity ([1]; 8 × MIC, time 0 min): 316720 and 318953 and 287601
- Fluorescence intensity ([1]; 8 × MIC, time 2 min): 306592 and 281292 and 278949
- Fluorescence intensity ([1]; 8 × MIC, time 3 min): 509097 and 487092 and 466724
- Fluorescence intensity ([1]; 8 × MIC, time 4 min): 554570 and 519763 and 475828
- Fluorescence intensity ([1]; 8 × MIC, time 5 min): 559925 and 528438 and 515396
- Fluorescence intensity ([1]; 8 × MIC, time 6 min): 604076 and 554173 and 584073
- Fluorescence intensity ([1]; 8 × MIC, time 7 min): 675156 and 586320 and 620163
- Fluorescence intensity ([1]; 8 × MIC, time 8 min): 678438 and 605666 and 584257
- Fluorescence intensity ([1]; 8 × MIC, time 9 min): 634065 and 620346 and 585359
- Fluorescence intensity ([1]; 8 × MIC, time 10 min): 631655 and 607518 and 607775
- Fluorescence intensity ([1]; MIC, time 0 min): 265359 and 273203 and 280202
- Fluorescence intensity ([1]; MIC, time 2 min): 248778 and 258601 and 249952
- Fluorescence intensity ([1]; MIC, time 3 min): 428479 and 457587 and 426641
- Fluorescence intensity ([1]; MIC, time 4 min): 445392 and 457798 and 421183
- Fluorescence intensity ([1]; MIC, time 5 min): 443463 and 444683 and 410451
- Fluorescence intensity ([1]; MIC, time 6 min): 393228 and 408494 and 378335
- Fluorescence intensity ([1]; MIC, time 7 min): 372004 and 372507 and 351114
- Fluorescence intensity ([1]; MIC, time 8 min): 379853 and 385402 and 371516
- Fluorescence intensity ([1]; MIC, time 9 min): 348331 and 385494 and 353788
- Fluorescence intensity ([1]; MIC, time 10 min): 352784 and 382102 and 364571
- Fluorescence intensity (MRSA USA 300; 2 × MIC, time 0 min): 1131 and 1217 and 1235
- Fluorescence intensity (MRSA USA 300; 2 × MIC, time 5 min): 20197 and 21230 and 20865
- Fluorescence intensity (MRSA USA 300; 2 × MIC, time 10 min): 25460 and 25912 and 25261
- Fluorescence intensity (MRSA USA 300; 2 × MIC, time 15 min): 28346 and 28832 and 27920
- Fluorescence intensity (MRSA USA 300; 2 × MIC, time 20 min): 30460 and 31033 and 29642
- Fluorescence intensity (MRSA USA 300; 4 × MIC, time 0 min): 1186 and 1404 and 1281
- Fluorescence intensity (MRSA USA 300; 4 × MIC, time 5 min): 40226 and 40219 and 41612
- Fluorescence intensity (MRSA USA 300; 4 × MIC, time 10 min): 48704 and 48472 and 50316
- Fluorescence intensity (MRSA USA 300; 4 × MIC, time 15 min): 53321 and 53163 and 55112
- Fluorescence intensity (MRSA USA 300; 4 × MIC, time 20 min): 56328 and 55931 and 58102
- Fluorescence intensity (MRSA USA 300; 8 × MIC, time 0 min): 1674 and 1277
- Fluorescence intensity (MRSA USA 300; 8 × MIC, time 5 min): 46924 and 49356 and 49374
- Fluorescence intensity (MRSA USA 300; 8 × MIC, time 10 min): 54383 and 56666 and 56984
- Fluorescence intensity (MRSA USA 300; 8 × MIC, time 15 min): 57832 and 59952 and 60652
- Fluorescence intensity (MRSA USA 300; 8 × MIC, time 20 min): 59829 and 61957 and 62485
- Fluorescence intensity (MRSA USA 300; MIC, time 5 min): 12522 and 12645 and 12185
- Fluorescence intensity (MRSA USA 300; MIC, time 10 min): 14676 and 14962 and 14128
- Fluorescence intensity (MRSA USA 300; MIC, time 15 min): 16119 and 16290 and 15431
- Fluorescence intensity (MRSA USA 300; MIC, time 20 min): 16841 and 16805 and 16042
- Fluorescence intensity ([2]; 2 × MIC, time 40 min): 5061266 and 5030558 and 4874244
- Fluorescence intensity ([2]; 2 × MIC, time 45 min): 5677448 and 5612956 and 5636688
- Fluorescence intensity ([2]; 2 × MIC, time 50 min): 5874321 and 5912570 and 5731926
- Fluorescence intensity ([2]; 2 × MIC, time 55 min): 6092226 and 5904835 and 6151856
- Fluorescence intensity ([2]; 2 × MIC, time 60 min): 6730024 and 6627110 and 6610916
- Fluorescence intensity ([2]; 4 × MIC, time 40 min): 8390482 and 8422816 and 8417436
- Fluorescence intensity ([2]; 4 × MIC, time 45 min): 9115897 and 9151186 and 9254166
- Fluorescence intensity ([2]; 4 × MIC, time 50 min): 9526499 and 9527543 and 9626189
- Fluorescence intensity ([2]; 4 × MIC, time 55 min): 9745162 and 9649049 and 9682277
- Fluorescence intensity ([2]; 4 × MIC, time 60 min): 9908766 and 10130725 and 10402149
- Fluorescence intensity ([2]; 8 × MIC, time 40 min): 8748208 and 10395943
- Fluorescence intensity ([2]; 8 × MIC, time 45 min): 11305392 and 9590655 and 11345669
- Fluorescence intensity ([2]; 8 × MIC, time 50 min): 12053517 and 10053693 and 11966533
- Fluorescence intensity ([2]; 8 × MIC, time 55 min): 12345023 and 10369365 and 12497110
- Fluorescence intensity ([2]; 8 × MIC, time 60 min): 13012399 and 10786283 and 13085859
- Fluorescence intensity ([2]; MIC, time 45 min): 2340358 and 2341777 and 2332380
- Fluorescence intensity ([2]; MIC, time 50 min): 2598680 and 2588564 and 2527431
- Fluorescence intensity ([2]; MIC, time 55 min): 2831696 and 2611342 and 2750034
- Fluorescence intensity ([2]; MIC, time 60 min): 2981626 and 2803081 and 2888135
